PubChem BioAssay AID504764 | Drosophila RNAi Screening Center – 2011

Test: 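Knock-downs that raise or lower a Notch target reporter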 (primary screen)
Cells: Drosophila Kc167 cells
Knock-down reagent: long dsRNA against Drosophila genes
Timing: about 5 days (4 days dsRNA, then 24 h after transfection)
Challenge: transfection of constitutively active membrane-tethered Notch lacking the extracellular domain, read 24 h later
Detection: 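Firefly luciferase from an E(spl)m3 reporter with active Notch, plus control-promoter and uninduced reporter wells for normalisation; unnormalised counts, duplicate wells a and b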
Reading the numbers: induced reporter light, run 1, well a and induced reporter light, run 1, well b: higher = more light from the Notch target reporter with active Notch; control promoter light, run 1, well a and control promoter light, run 1, well b: higher = more light from the viral control promoter (cell number, transfection, viability); uninduced reporter light, run 1, well a: higher = more light from the Notch target reporter without active Notch
Call rule: 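Hit if the duplicate-averaged log2 ratio of induced to control-promoter light gives a plate-wise z beyond ±2, or induced to uninduced beyond ±1.8; weak-control or discordant-duplicate wells dropped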
Meaning of the calls: active = modifier hit (raised or lowered Notch signal); inactive = not a hit
The screen tested about 22,000 reagents; this is a random part of those that have a named target and a result. Of all reagents, 403 (1.9%) were called active. 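Unnormalised raw counts per well; ratio z-scores behind the hit calls and whether each hit raises or lowers signal are not deposited.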 A number with no mark means an inactive call. The numbers tell different reagents against one gene apart. The record does not give: the amount of reagent.

{"gene": "pippin", "dsRNA no.": 1, "induced reporter light, run 1, well a": 1.86e5, "induced reporter light, run 1, well b": 1.92e5, "control promoter light, run 1, well a": 2.02e5, "control promoter light, run 1, well b": 2.05e5, "uninduced reporter light, run 1, well a": 13830}
{"gene": "dpr11 (defective proboscis extension response 11)", "dsRNA no.": 1, "induced reporter light, run 1, well a": 75895, "induced reporter light, run 1, well b": 56880, "control promoter light, run 1, well a": 54760, "control promoter light, run 1, well b": 46020, "uninduced reporter light, run 1, well a": 3800}
{"gene": "dpr11 (defective proboscis extension response 11)", "dsRNA no.": 2, "induced reporter light, run 1, well a": 1.10e5, "induced reporter light, run 1, well b": 82890, "control promoter light, run 1, well a": 65445, "control promoter light, run 1, well b": 53335, "uninduced reporter light, run 1, well a": 7415}
{"gene": "dpr11 (defective proboscis extension response 11)", "dsRNA no.": 3, "induced reporter light, run 1, well a": 67500, "induced reporter light, run 1, well b": 75635, "control promoter light, run 1, well a": 98390, "control promoter light, run 1, well b": 81450, "uninduced reporter light, run 1, well a": 5480}
{"gene": "Prosalpha6 (Proteasome alpha6 subunit)", "dsRNA no.": 1, "induced reporter light, run 1, well a": 11345, "induced reporter light, run 1, well b": 11505, "control promoter light, run 1, well a": 8130, "control promoter light, run 1, well b": 8790, "uninduced reporter light, run 1, well a": 1540}
{"gene": "cysu (Curly Su)", "dsRNA no.": 1, "induced reporter light, run 1, well a": 24320, "induced reporter light, run 1, well b": 25195, "control promoter light, run 1, well a": 23715, "control promoter light, run 1, well b": 26150, "uninduced reporter light, run 1, well a": 1985}
{"gene": "Alh (Alhambra)", "dsRNA no.": 1, "induced reporter light, run 1, well a": 2735, "induced reporter light, run 1, well b": 2488, "control promoter light, run 1, well a": 2115, "control promoter light, run 1, well b": 1675, "uninduced reporter light, run 1, well a": 2155}
{"gene": "Alh (Alhambra)", "dsRNA no.": 2, "induced reporter light, run 1, well a": 34055, "induced reporter light, run 1, well b": 36230, "control promoter light, run 1, well a": 27305, "control promoter light, run 1, well b": 38475, "uninduced reporter light, run 1, well a": 4285}
{"gene": "Alh (Alhambra)", "dsRNA no.": 3, "induced reporter light, run 1, well a": 70555, "induced reporter light, run 1, well b": 87650, "control promoter light, run 1, well a": 58925, "control promoter light, run 1, well b": 50775, "uninduced reporter light, run 1, well a": 5350}
{"gene": "Vta1 (Vesicle trafficking 1)", "dsRNA no.": 1, "induced reporter light, run 1, well a": 1.55e5, "induced reporter light, run 1, well b": 1.26e5, "control promoter light, run 1, well a": 1.91e5, "control promoter light, run 1, well b": 1.87e5, "uninduced reporter light, run 1, well a": 8642}
{"gene": "CG8500", "dsRNA no.": 1, "induced reporter light, run 1, well a": 57160, "induced reporter light, run 1, well b": 47675, "control promoter light, run 1, well a": 52490, "control promoter light, run 1, well b": 37635, "uninduced reporter light, run 1, well a": 3532}
{"gene": "CG13151", "dsRNA no.": 1, "induced reporter light, run 1, well a": 1.11e5, "induced reporter light, run 1, well b": 1.18e5, "control promoter light, run 1, well a": 1.73e5, "control promoter light, run 1, well b": 1.15e5, "uninduced reporter light, run 1, well a": 10480}

Ordered by “control promoter light, run 1, well a” (low to high): 2 of the entries above.
{"gene": "dpr11 (defective proboscis extension response 11)", "dsRNA no.": 1, "induced reporter light, run 1, well a": 75895, "induced reporter light, run 1, well b": 56880, "control promoter light, run 1, well a": 54760, "control promoter light, run 1, well b": 46020, "uninduced reporter light, run 1, well a": 3800}
{"gene": "pippin", "dsRNA no.": 1, "induced reporter light, run 1, well a": 1.86e5, "induced reporter light, run 1, well b": 1.92e5, "control promoter light, run 1, well a": 2.02e5, "control promoter light, run 1, well b": 2.05e5, "uninduced reporter light, run 1, well a": 13830}
